US20110275569A1, “PROTEASES TARGETING AGENTS” (CONSIGLIO NAZIONALE DELLE RICERCHE, priority 2008, published 2011)
At least one peptide structure holds a part that was inferred or is arguable (an end, a ring closure or a residue).

Tested on: caspase-3
Assay: Caspase-3 activity after peptide treatment of Caco-2 cells
Format: cell-based, human
Text: To elucidate the molecular mechanisms associated with the inhibition of the proteasome, the effects of treatments with the SsCEI 2 and SsCEI 4 peptides on the activation of caspases have been evaluated.

“H-TILLEIKNINAD-NH2 [SsCEI 2, TILLEIKNINAD]” was tested, and the caspase-3 activity was “increased in a dose dependent manner”.
